# Measurements published in patent US20130330334A1.
# These are yes or no findings as the source states them, for the method shown. Some binding calls cover weakened binding; strength is not graded here.
# Target: human CD4 (coated on ELISA plate) (human) (UniProt P01730)
# Experiment: competition ELISA, plate-coated human CD4
row,binding,Binder
1,binds,"modified anti-CD4 antibody VH4/VK4 (antibody, V domains shown) VH: EVQLQQSGTELKRPGASVKMSCKASGYTFANYWMHWVKQAPGQGLQWIGALYPGNVDTTYNQKFKDKAKLTAVTSASTAYMELSSLTNEDSAVYYCTRMGTTLEAPLDYWGQGTTVTVSS VL: QIVLTQSPAILSASPGEKAAMTCSARSSVSYLYWYQQKPGSSPRLLIYDTSNLASGVPSRFIGSGSGTDYSLTISSMEAEDAATYYCQQWSDYPLTFGAGTKLEIK"
2,binds,"modified anti-CD4 antibody VH4/VK2 (antibody, V domains shown) VH: EVQLQQSGTELKRPGASVKMSCKASGYTFANYWMHWVKQAPGQGLQWIGALYPGNVDTTYNQKFKDKAKLTAVTSASTAYMELSSLTNEDSAVYYCTRMGTTLEAPLDYWGQGTTVTVSS VL: QIVLTQSPATLSASPGEKAAMTCSARSSVSYLYWYQQKPGSSPRLLIYDTSNLASGVPSRFSGSGSGTDYSLTISSMEAEDAATYYCQQWSDYPLTFGAGTKLEIK"

# Further lines, the binder ahead of its results:
row,Binder,binding
1,"modified anti-CD4 antibody VH1/VK1 (antibody, V domains shown) VH: EVQLQQSGSELKRPGASVKVSCKASGYTFANYWMHWVRQAPGQGLQWIGALYPGNVDTTYNQKFKDKAKITRDTSASTAYMELSSLTNEDTAVYYCTRMGTTLEAPLDYWGQGTLVTVSS VL: QIVLTQSPATLSASPGEKAAMTCSARSSVSYLYWYQQKPGSSPRALIYDTSNLASGVPSRFSGSGSGTDYSLTISSMEAEDAATYYCQQWSDYPLTFGAGTKLEIK",binds
2,"modified anti-CD4 antibody VH3/VK4 (antibody, V domains shown) VH: EVQLQQSGSELKRPGASVKMSCKASGYTFANYWMHWVKQAPGQGLQWIGALYPGNVDTTYNQKFKDKAKLTAVTSASTAYMELSSLTNEDTAVYYCTRMGTTLEAPLDYWGQGTLVTVSS VL: QIVLTQSPAILSASPGEKAAMTCSARSSVSYLYWYQQKPGSSPRLLIYDTSNLASGVPSRFIGSGSGTDYSLTISSMEAEDAATYYCQQWSDYPLTFGAGTKLEIK",binds
3,"modified anti-CD4 antibody VH3/VK2 (antibody, V domains shown) VH: EVQLQQSGSELKRPGASVKMSCKASGYTFANYWMHWVKQAPGQGLQWIGALYPGNVDTTYNQKFKDKAKLTAVTSASTAYMELSSLTNEDTAVYYCTRMGTTLEAPLDYWGQGTLVTVSS VL: QIVLTQSPATLSASPGEKAAMTCSARSSVSYLYWYQQKPGSSPRLLIYDTSNLASGVPSRFSGSGSGTDYSLTISSMEAEDAATYYCQQWSDYPLTFGAGTKLEIK",binds
4,"modified anti-CD4 antibody VH2/VK2 (antibody, V domains shown) VH: EVQLQQSGSELKRPGASVKVSCKASGYTFANYWMHWVKQAPGQGLQWIGALYPGNVDTTYNQKFKDKAKLTADTSASTAYMELSSLTNEDTAVYYCTRMGTTLEAPLDYWGQGTLVTVSS VL: QIVLTQSPATLSASPGEKAAMTCSARSSVSYLYWYQQKPGSSPRLLIYDTSNLASGVPSRFSGSGSGTDYSLTISSMEAEDAATYYCQQWSDYPLTFGAGTKLEIK",binds
5,"modified anti-CD4 antibody VH2/VK4 (antibody, V domains shown) VH: EVQLQQSGSELKRPGASVKVSCKASGYTFANYWMHWVKQAPGQGLQWIGALYPGNVDTTYNQKFKDKAKLTADTSASTAYMELSSLTNEDTAVYYCTRMGTTLEAPLDYWGQGTLVTVSS VL: QIVLTQSPAILSASPGEKAAMTCSARSSVSYLYWYQQKPGSSPRLLIYDTSNLASGVPSRFIGSGSGTDYSLTISSMEAEDAATYYCQQWSDYPLTFGAGTKLEIK",binds

# Target: human CD4 (coated on ELISA plate) (human) (UniProt P01730)
# Experiment: competition ELISA, plate-coated CD4
row,binding,Binder
1,binds,"monoclonal mouse anti human CD4-antibody 30F16H5 (antibody, mouse IgG1, V domains shown) VH: EVQLQQSGTVLARPGASVQMSCKASGYSFANYWMHWVKQRPGQGLQWIGALYPGNVDTTYNQKFKDKAKLTAVTSASTAYMELSSLTNEDSAVYYCTRMGTTLEAPLDYWGQGTTLTVSS VL: QIVLTQSPAIMSASPGEKVAMTCSARSSVSYLYWYQQKPGSSPRLLIYDTSNLASGVPVRFIGSGSGTSYSLTISRMEAEDAATYYCQQWSDYPLTFGAGTKLELK"
2,binds,"chimeric anti human CD4-antibody (chimeric IgG4) (antibody, V domains shown) VH: EVQLQQSGTVLARPGASVQMSCKASGYSFANYWMHWVKQRPGQGLQWIGALYPGNVDTTYNQKFKDKAKLTAVTSASTAYMELSSLTNEDSAVYYCTRMGTTLEAPLDYWGQGTTLTVSS VL: QIVLTQSPAIMSASPGEKVAMTCSARSSVSYLYWYQQKPGSSPRLLIYDTSNLASGVPVRFIGSGSGTSYSLTISRMEAEDAATYYCQQWSDYPLTFGAGTKLELK"
